Assay results published in paper PMC8513302.
Results are given in words; binding and its absence hold for the method and conditions named. Binding seen in cells or lysates may run through a third protein. Some entries that bind do so weakly or less than the wild type. Blank lines part the entries; values can stand above or below the substance they belong to.

Amino acid sequences for entries named in this document (tags omitted).
UniProt O15047: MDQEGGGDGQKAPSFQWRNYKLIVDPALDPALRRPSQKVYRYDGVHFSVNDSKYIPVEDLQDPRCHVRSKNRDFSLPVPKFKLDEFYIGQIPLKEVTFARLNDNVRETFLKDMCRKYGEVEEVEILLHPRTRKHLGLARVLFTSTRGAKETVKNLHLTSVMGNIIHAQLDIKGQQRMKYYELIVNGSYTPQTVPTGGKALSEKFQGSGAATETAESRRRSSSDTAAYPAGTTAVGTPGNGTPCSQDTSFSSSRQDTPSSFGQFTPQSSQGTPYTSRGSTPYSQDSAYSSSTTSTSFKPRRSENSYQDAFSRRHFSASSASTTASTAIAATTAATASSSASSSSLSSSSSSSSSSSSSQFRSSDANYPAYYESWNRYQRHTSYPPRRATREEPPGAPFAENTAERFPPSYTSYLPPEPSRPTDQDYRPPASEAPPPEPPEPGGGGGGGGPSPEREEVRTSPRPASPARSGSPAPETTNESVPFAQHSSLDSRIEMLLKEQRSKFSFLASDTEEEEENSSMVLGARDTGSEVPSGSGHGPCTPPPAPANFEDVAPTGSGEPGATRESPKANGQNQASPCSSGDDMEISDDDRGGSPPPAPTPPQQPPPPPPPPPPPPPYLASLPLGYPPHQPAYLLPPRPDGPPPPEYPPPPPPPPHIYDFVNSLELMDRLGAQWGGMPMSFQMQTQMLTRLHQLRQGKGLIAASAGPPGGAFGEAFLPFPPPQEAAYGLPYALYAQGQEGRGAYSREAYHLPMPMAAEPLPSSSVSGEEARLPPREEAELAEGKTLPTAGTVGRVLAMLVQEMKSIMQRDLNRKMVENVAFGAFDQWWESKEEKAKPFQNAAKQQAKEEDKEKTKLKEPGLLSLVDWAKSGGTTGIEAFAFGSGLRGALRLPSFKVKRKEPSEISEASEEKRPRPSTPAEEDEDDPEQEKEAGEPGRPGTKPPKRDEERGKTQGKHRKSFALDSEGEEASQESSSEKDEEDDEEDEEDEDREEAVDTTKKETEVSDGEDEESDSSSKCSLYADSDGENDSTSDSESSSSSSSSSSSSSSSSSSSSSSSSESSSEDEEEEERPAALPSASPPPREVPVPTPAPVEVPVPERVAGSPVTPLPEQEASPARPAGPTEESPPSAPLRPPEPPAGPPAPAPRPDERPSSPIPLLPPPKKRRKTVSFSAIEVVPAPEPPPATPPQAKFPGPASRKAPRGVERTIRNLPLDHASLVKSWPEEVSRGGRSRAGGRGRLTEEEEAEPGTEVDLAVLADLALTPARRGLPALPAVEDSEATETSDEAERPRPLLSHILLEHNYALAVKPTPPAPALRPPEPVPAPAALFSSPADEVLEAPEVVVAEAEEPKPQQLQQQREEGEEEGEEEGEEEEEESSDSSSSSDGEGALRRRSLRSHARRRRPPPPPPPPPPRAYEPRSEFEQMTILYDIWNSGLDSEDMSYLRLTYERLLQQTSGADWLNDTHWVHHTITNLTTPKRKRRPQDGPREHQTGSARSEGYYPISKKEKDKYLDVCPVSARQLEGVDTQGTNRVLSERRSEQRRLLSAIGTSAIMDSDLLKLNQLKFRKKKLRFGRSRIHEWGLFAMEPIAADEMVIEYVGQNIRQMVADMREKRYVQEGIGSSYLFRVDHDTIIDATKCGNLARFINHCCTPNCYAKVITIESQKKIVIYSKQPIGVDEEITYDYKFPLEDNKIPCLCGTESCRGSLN
UniProt P35222: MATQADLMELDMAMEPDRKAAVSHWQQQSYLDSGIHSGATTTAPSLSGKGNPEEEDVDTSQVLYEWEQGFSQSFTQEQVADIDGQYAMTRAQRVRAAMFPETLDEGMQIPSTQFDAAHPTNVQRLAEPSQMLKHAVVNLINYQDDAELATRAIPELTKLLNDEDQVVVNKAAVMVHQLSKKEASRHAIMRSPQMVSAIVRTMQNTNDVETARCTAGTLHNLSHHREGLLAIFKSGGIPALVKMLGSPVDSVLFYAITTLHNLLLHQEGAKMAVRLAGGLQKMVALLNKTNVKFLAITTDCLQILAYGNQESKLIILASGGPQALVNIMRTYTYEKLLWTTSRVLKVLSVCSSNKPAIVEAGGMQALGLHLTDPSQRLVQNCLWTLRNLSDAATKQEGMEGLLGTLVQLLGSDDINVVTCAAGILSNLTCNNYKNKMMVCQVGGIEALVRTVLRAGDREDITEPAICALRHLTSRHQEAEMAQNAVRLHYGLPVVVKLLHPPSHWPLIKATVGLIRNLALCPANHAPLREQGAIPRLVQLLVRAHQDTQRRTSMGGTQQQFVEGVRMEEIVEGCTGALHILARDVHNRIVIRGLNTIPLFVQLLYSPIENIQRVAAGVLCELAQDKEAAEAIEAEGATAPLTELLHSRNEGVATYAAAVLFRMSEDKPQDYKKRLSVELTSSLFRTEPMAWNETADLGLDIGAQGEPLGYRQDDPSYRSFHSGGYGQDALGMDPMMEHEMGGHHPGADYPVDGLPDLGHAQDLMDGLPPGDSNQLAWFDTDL

What was measured:
Flag-tagged SETD1A = Flag-tagged SETD1A (UniProt O15047); assay: co-IP; two-step co-IP; HEK293T cotransfected with Flag-tagged SETD1A and HA-tagged β-catenin; first IP anti-Flag M2 beads, elution with 3 x Flag peptide (250 μg/ml), second IP with anti-HA or control IgG; blots with anti-Flag, anti-HA and anti-PKAα cat
[1] = molecular target: β-catenin (human (endogenous in PC9 and BEAS-2B)) (UniProt P35222); assay: co-IP; endogenous proteins in lysates of PC9 or BEAS-2B cells; IP with anti-SETD1A or anti-β-catenin antibody, Protein A/G PLUS-Agarose, western blot; for the destruction complex: PC9 cells with or without SETD1A knock-down, Wnt3a for 12 h, IP with β-catenin antibody
[2] = molecular target: SETD1A (human (endogenous in PC9 and BEAS-2B)) (UniProt O15047); assay: as above

- binding (Flag-tagged SETD1A): binds
Substance: HA-tagged full length β-catenin (from UniProt P35222 1-781)

- binding [1]: binds
Substance: SETD1A (from UniProt O15047 1-1707)

- binding [2]: binds
Substance: β-catenin (from UniProt P35222 1-781)
